Laboratory results: patent publication US8119766 (UNIVERSITY OF IOWA RESEARCH FOUNDATION, dated 2012)
Results are given in words; binding and its absence hold for the method and conditions named. For some of these results: In cells and extracts the contact can be indirect. Some binding calls cover weakened binding; strength is not graded here. For some of these results: Sequences can lack the tags named with a protein.

Sequences of proteins named here, by UniProt entry; tags and fusion partners are left off. A change or cut given only in a name is not applied to a line headed by its entry.
UniProt P19137: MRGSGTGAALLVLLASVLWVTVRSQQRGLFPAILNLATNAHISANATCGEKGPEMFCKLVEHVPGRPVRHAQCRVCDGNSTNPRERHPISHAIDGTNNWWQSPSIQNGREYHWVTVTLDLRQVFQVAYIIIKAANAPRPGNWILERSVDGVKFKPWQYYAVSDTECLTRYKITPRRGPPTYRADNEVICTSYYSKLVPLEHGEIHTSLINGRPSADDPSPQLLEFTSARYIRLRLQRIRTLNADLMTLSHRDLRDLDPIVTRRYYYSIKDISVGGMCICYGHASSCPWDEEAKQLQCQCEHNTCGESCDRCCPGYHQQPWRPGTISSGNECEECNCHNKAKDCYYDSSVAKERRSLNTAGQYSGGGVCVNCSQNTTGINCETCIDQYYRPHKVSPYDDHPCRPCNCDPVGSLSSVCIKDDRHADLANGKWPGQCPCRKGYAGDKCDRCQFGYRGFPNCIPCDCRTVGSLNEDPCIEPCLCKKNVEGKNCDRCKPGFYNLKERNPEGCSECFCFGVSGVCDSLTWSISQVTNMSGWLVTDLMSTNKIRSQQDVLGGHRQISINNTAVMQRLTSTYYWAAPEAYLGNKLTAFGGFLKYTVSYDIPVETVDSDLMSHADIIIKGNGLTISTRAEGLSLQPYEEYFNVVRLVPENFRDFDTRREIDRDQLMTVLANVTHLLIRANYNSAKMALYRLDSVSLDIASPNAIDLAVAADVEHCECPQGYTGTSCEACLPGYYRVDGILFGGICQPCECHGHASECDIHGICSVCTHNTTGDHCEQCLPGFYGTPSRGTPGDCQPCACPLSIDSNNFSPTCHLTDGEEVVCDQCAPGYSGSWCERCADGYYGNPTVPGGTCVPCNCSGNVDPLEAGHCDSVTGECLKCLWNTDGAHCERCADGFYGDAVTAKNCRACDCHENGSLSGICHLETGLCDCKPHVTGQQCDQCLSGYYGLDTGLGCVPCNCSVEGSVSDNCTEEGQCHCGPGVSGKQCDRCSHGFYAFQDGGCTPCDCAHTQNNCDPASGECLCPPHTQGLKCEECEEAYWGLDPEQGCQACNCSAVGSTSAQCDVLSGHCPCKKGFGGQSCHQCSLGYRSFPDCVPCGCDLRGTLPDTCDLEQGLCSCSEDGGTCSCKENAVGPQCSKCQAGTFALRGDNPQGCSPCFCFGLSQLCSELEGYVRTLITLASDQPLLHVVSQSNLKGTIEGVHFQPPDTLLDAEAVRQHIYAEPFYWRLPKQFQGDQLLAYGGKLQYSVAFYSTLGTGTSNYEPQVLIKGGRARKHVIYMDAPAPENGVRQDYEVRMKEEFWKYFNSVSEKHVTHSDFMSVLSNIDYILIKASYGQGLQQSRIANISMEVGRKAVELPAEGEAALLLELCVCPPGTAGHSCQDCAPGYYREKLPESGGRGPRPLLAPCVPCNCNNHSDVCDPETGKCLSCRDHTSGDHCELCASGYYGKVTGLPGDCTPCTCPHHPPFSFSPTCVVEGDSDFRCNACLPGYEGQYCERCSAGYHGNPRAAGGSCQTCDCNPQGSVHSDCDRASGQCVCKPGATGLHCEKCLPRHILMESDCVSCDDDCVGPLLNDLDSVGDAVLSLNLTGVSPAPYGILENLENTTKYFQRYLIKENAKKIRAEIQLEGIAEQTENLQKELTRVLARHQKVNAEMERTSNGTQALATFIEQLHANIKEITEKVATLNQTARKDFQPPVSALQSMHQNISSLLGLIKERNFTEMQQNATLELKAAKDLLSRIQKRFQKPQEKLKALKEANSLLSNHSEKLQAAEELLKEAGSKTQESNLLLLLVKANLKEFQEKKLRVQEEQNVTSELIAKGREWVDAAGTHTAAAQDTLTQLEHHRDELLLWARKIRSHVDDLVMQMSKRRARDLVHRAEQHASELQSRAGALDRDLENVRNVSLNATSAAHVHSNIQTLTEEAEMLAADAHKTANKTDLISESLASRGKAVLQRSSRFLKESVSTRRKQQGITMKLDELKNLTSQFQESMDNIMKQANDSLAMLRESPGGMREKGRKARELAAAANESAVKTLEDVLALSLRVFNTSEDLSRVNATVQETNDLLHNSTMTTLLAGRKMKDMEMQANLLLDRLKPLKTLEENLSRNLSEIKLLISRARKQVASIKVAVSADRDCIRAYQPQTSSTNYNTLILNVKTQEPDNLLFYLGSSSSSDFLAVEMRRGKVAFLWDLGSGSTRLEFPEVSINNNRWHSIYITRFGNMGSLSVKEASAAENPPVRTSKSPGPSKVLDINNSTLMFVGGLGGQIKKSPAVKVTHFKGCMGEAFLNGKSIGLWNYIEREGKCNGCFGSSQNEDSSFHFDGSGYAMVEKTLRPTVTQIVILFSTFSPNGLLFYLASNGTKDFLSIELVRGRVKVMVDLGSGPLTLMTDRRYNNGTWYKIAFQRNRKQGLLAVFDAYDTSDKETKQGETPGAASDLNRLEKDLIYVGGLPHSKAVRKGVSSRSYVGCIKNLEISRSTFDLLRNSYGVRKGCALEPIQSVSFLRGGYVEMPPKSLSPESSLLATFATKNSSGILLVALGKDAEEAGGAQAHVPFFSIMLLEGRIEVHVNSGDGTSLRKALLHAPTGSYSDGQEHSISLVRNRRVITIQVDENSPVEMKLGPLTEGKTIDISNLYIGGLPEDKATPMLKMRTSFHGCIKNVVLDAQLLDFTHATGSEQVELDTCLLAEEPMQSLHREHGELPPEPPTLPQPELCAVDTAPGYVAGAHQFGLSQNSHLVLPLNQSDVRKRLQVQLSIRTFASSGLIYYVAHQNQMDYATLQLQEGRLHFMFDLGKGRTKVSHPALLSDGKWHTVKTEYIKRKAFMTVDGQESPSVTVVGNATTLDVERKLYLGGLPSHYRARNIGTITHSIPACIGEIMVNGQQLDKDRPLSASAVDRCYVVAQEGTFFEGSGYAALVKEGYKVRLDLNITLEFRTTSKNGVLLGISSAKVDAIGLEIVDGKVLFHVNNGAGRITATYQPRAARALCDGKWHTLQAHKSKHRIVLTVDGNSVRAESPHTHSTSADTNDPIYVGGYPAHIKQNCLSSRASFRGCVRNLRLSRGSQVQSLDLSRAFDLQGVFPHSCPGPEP

Legend:
[1] = biological target: T1, α-DG from control mouse skeletal muscle treated with Ad5-LARGE/eGFP (mouse) (UniProt Q62165); assay: ligand overlay on WGA-enriched muscle homogenate
T1 sequence (LARGE-induced hyperglycosylation; sites not stated, looked up): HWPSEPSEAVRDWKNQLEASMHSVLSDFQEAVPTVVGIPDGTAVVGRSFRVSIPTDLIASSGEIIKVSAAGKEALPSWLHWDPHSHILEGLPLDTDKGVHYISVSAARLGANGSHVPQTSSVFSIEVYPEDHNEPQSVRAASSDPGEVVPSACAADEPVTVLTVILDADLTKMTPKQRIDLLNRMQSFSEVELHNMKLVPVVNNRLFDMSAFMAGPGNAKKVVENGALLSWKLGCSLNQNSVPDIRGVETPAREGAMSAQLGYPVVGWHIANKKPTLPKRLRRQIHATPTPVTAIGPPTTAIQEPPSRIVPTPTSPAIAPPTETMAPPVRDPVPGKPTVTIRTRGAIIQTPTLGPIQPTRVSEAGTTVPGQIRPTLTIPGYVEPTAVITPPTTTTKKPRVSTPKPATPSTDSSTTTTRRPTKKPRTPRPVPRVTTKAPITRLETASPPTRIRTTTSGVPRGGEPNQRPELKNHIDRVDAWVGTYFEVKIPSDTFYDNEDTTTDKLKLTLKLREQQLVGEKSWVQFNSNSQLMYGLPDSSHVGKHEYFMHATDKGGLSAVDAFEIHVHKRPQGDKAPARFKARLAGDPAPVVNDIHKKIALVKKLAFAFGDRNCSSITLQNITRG

[2] = biological target: T2, α-DG from Large^myd mouse skeletal muscle treated with Ad5-LARGE/eGFP (mouse) (UniProt Q62165); assay: ligand overlay on WGA-enriched muscle homogenate
T2 sequence (LARGE-induced glycosylation; sites not stated, looked up): T1 sequence (LARGE-induced hyperglycosylation; sites not stated, looked up)

[3] = biological target: T3, DG-WT (UniProt Q28685); assay: blot overlay assay (FIG. 7C)
T3 sequence (glycosylated; sites not stated, looked up): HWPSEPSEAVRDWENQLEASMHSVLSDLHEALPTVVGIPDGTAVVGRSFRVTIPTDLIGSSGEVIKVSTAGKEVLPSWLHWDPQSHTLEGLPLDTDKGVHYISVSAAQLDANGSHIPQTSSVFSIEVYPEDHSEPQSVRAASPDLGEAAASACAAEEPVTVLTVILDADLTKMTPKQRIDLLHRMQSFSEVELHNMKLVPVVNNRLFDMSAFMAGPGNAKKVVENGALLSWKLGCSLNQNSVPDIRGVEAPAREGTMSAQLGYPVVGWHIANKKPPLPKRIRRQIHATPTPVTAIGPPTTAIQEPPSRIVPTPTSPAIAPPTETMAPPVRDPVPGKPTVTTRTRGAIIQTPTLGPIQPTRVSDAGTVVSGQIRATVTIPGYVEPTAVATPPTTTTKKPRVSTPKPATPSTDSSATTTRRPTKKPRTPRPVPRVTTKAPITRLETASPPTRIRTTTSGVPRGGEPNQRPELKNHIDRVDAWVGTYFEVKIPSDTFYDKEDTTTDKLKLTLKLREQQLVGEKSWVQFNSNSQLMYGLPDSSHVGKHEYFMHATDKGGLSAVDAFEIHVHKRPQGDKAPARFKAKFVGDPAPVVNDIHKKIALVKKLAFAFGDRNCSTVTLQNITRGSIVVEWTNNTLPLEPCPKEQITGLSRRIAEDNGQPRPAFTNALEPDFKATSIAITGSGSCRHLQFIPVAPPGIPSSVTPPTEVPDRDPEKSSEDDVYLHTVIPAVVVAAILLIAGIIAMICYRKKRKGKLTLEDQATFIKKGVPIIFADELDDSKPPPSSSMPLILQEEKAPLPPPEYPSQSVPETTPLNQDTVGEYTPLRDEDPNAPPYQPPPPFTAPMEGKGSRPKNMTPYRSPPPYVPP

[4] = biological target: T4, DG-G (UniProt Q28685); assay: blot overlay assay (FIG. 7C)
T4 sequence (glycosylated; sites not stated, looked up): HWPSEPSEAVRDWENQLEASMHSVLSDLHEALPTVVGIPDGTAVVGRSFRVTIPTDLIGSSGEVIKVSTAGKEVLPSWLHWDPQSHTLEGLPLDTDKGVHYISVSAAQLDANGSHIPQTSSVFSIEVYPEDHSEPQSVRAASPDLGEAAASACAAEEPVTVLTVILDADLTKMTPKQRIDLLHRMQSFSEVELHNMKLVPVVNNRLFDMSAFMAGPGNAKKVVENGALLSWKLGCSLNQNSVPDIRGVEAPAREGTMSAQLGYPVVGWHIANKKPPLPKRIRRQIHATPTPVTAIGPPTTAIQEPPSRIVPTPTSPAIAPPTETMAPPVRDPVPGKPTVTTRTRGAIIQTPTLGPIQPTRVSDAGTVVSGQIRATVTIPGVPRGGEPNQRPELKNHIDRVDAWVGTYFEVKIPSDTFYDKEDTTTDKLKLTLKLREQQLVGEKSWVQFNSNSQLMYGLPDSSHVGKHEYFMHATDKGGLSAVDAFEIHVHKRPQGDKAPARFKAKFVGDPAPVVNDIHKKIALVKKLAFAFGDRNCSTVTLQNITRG

[5] = biological target: T1, α-DG from control mouse skeletal muscle treated with Ad5-LARGE/eGFP (mouse); assay: solid-phase laminin-binding assay (FIG. 1e)
[6] = biological target: T2, α-DG from Large^myd mouse skeletal muscle treated with Ad5-LARGE/eGFP (mouse); assay: solid-phase laminin-binding assay (FIG. 1e)
[7] = biological target: T3, DG-WT; assay: laminin overlay
[8] = biological target: T4, DG-G; assay: laminin overlay
[9] = biological target: T3, DG-WT; assay: restated in the in vivo section
[10] = biological target: T4, DG-G; assay: restated in the in vivo section
[11] = biological target: T5, DGFc5 (CMK-treated, medium) (human); assay: pull-down on DGFc-protein A beads, anti-LARGE Western blot (FIG. 10B)
T5 sequence (glycosylated; sites not stated, looked up): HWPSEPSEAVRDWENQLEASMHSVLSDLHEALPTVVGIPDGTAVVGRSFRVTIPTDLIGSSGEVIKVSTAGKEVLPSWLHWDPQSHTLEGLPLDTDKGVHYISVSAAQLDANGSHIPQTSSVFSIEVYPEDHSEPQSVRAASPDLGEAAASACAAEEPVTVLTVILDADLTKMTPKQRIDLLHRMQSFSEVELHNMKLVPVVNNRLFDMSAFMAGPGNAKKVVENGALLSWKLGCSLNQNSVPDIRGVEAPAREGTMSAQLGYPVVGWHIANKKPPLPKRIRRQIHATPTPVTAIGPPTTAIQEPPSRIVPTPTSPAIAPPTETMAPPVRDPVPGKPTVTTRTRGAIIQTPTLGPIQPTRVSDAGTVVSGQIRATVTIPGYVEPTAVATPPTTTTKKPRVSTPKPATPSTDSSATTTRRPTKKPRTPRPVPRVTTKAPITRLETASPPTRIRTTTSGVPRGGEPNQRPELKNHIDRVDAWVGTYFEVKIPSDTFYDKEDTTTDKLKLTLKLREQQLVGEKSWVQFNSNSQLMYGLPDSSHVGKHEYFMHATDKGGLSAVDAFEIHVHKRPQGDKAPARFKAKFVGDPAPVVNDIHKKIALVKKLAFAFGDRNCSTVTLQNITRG

[12] = biological target: T6, DGFc2 prepared from cell lysate (human); assay: as above
T6 sequence (looked up): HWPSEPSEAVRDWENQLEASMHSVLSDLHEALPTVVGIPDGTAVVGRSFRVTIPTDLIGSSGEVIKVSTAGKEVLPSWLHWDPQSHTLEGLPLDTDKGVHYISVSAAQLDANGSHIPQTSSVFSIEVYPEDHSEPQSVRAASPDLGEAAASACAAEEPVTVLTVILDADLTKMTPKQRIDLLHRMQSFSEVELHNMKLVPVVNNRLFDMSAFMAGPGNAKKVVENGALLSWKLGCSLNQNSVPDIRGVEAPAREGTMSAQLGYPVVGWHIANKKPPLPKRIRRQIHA

[13] = biological target: T7, DGFc5 prepared from cell lysate (human); assay: as above
T7 sequence (looked up): T5 sequence (glycosylated; sites not stated, looked up)

Measured: binding

laminin-1 (from UniProt P19137 25-3083; P02469 22-1786; P02468 34-1607) (ligand)
binds: [1] | [2] | [3] | [4] | [5] | [6] | [7] | [8] | [9] | [10]

B1: LARGE (enzyme, human, UniProt O95461 1-756, looked up)
chain: MLGICRGRRKFLAASLSLLCIPAITWIYLFSGSFEDGKPVSLSPLESQAHSPRYTASSQRERESLEVRMREVEEENRALRRQLSLAQGRAPSHRRGNHSKTYSMEEGTGDSENLRAGIVAGNSSECGQQPVVEKCETIHVAIVCAGYNASRDVVTLVKSVLFHRRNPLHFHLIADSIAEQILATLFQTWMVPAVRVDFYNADELKSEVSWIPNKHYSGIYGLMKLVLTKTLPANLERVIVLDTDITFATDIAELWAVFHKFKGQQVLGLVENQSDWYLGNLWKNHRPWPALGRGYNTGVILLLLDKLRKMKWEQMWRLTAERELMGMLSTSLADQDIFNAVIKQNPFLVYQLPCFWNVQLSDHTRSEQCYRDVSDLKVIHWNSPKKLRVKNKHVEFFRNLYLTFLEYDGNLLRRELFGCPSEADVNSENLQKQLSELDEDDLCYEFRRERFTVHRTHLYFLHYEYEPAADSTDVTLVAQLSMDRLQMLEAICKHWEGPISLALYLSDAEAQQFLRYAQGSEVLMSRHNVGYHIVYKEGQFYPVNLLRNVAMKHISTPYMFLSDIDFLPMYGLYEYLRKSVIQLDLANTKKAMIVPAFETLRYRLSFPKSKAELLSMLDMGTLFTFRYHVWTKGHAPTNFAKWRTATTPYRVEWEADFEPYVVVRRDCPEYDRRFVGFGWNKVAHIMELDVQEYEFIVLPNAYMIHMPHAPSFDITKFRSNKQYRICLKTLKEEFQQDMSRRYGFAALKYLTAENNS
binds: [11] | [12] | [13]
